{"source": "paper PMC7978294", "binders": {"B1": {"name": "APPL1 (adaptor containing a pleckstrin homology (PH) domain, phosphotyrosine-binding (PTB) domain, and leucine zipper motif 1), endogenous mouse (protein, UniProt Q8K3H0 1-707)", "chain": "MPGIDKLPIEETLEDSPQTRSLLGVFEEDATAISNYMNQLYQAMHRIYDAQNELSAATHLTSKLLKEYEKQRFPLGGDDEVMSSTLQQFSKVIDELSSCHAVLSTQLADAMMFPISQFKERDLKEILTLKEVFQIASNDHDAAINRYSRLSKKRENDKVKYEVTEDVYTSRKKQHQTMMHYFCALNTLQYKKKIALLEPLLGYMQAQISFFKMGSENLNGQLEEFLANIGTSVQNVRREMDGDVETMQQTIEDLEVASDPLYLPDPDPTKFPINRNLTRKAGYLNARNKTGLVSSTWDRQFYFTQGGNLMSQARGDVAGGLAMDIDNCSVMAVDCEDRRYCFQITSFDGKKSSILQAESKKDHEEWICTINNISKQIYLSENPEETAARVNQSALEAVTPSPSFQQRHESLRPGGQSRPPTARTSSSGSLGSESTNLAALSLDSLVAPDTPIQFDIISPVCEDQPGQAKAFGQGGRRTNPFGESGGSTKSETEDSILHQLFIVRFLGSMEVKSDDHPDVVYETMRQILAARAIHNIFRMTESHLLVTCDCLKLIDPQTQVTRLTFPLPCVVLYATHQENKRLFGFVLRTSGGRSESNLSSVCYIFESNNEGEKICDSVGLAKQIALHAELDRRASEKQKEIERVKEKQQKELSKQKQIEKDLEEQSRLIAASSRPNQAGSEGQLVLSSSQSEESDLGEEGKKRESEA"}}, "target": "IL-4Rα-ΔIC-Flag (intracellular domain-depleted mIL-4Rα fused with Flag) (mouse)", "test": "co-IP; IP: Flag; IL-4Rα-KO BMDMs stably expressing IL-4Rα-WT-Flag or IL-4Rα-ΔIC-Flag, treated with IL-4 (100 ng/mL)", "note": "Results are given in words; binding and its absence hold for the method and conditions named. In cells and extracts the contact can be indirect.", "data": [{"binder": "B1", "values": [{"measurement": "binding", "result": "no binding"}]}]}
